Measurements: article PMC4802042
Results are given in words; binding and its absence hold for the method and conditions named. Binding seen in cells or lysates may run through a third protein. Binding calls can cover weak binding; strength is not graded here. Where a sequence is shown, tags or fusion partners need not be part of it.

Biological target: T1, (Myc)-MKP7, full-length (human) (UniProt Q9BY84)
T1 sequence: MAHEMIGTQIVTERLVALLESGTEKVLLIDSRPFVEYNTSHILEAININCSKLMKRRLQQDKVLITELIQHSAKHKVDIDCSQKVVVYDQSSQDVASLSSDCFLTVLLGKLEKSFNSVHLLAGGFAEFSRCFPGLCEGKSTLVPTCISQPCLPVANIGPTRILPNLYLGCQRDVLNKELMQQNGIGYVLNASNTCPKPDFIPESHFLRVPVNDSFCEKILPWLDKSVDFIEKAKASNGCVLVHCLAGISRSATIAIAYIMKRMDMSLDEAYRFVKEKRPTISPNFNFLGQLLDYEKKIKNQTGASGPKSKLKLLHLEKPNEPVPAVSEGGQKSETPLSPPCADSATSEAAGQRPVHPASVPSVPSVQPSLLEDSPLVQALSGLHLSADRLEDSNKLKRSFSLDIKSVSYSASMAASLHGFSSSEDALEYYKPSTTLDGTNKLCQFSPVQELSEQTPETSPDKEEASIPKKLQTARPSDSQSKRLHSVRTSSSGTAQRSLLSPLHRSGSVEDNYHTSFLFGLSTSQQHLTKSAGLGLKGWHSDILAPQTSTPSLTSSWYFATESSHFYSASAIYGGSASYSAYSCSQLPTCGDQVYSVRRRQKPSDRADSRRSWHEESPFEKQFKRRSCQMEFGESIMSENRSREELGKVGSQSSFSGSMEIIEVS
Assay: co-IP; HEK293T co-transfected with Myc-MKP7 full-length and HA-JNK1 (wild type or mutants), unstimulated; immunoprecipitation with anti-Myc, blot for HA

binding | Substance
binds | (HA)-JNK1, wild type (human) (enzyme)
no binding | (HA)-JNK1 Y259D (human) (enzyme)
no binding | (HA)-JNK1 D229A (human) (enzyme)
no binding | (HA)-JNK1 W234D (human) (enzyme)
binds | (HA)-JNK1 I231D (human) (enzyme)
